Results reported in PMC6238537.
No constants are given. Whether binding was seen depends on the method and setting. For some of these results: Binding seen in cells or lysates may run through a third protein. Some entries that bind do so weakly or less than the wild type.

The chains behind the UniProt entries cited, without tags or fusion partners. Where a name states a change or a piece, a line headed by the entry shows the natural chain unless it says otherwise. Residues count along the entry.
UniProt P11047, residues 34-1609: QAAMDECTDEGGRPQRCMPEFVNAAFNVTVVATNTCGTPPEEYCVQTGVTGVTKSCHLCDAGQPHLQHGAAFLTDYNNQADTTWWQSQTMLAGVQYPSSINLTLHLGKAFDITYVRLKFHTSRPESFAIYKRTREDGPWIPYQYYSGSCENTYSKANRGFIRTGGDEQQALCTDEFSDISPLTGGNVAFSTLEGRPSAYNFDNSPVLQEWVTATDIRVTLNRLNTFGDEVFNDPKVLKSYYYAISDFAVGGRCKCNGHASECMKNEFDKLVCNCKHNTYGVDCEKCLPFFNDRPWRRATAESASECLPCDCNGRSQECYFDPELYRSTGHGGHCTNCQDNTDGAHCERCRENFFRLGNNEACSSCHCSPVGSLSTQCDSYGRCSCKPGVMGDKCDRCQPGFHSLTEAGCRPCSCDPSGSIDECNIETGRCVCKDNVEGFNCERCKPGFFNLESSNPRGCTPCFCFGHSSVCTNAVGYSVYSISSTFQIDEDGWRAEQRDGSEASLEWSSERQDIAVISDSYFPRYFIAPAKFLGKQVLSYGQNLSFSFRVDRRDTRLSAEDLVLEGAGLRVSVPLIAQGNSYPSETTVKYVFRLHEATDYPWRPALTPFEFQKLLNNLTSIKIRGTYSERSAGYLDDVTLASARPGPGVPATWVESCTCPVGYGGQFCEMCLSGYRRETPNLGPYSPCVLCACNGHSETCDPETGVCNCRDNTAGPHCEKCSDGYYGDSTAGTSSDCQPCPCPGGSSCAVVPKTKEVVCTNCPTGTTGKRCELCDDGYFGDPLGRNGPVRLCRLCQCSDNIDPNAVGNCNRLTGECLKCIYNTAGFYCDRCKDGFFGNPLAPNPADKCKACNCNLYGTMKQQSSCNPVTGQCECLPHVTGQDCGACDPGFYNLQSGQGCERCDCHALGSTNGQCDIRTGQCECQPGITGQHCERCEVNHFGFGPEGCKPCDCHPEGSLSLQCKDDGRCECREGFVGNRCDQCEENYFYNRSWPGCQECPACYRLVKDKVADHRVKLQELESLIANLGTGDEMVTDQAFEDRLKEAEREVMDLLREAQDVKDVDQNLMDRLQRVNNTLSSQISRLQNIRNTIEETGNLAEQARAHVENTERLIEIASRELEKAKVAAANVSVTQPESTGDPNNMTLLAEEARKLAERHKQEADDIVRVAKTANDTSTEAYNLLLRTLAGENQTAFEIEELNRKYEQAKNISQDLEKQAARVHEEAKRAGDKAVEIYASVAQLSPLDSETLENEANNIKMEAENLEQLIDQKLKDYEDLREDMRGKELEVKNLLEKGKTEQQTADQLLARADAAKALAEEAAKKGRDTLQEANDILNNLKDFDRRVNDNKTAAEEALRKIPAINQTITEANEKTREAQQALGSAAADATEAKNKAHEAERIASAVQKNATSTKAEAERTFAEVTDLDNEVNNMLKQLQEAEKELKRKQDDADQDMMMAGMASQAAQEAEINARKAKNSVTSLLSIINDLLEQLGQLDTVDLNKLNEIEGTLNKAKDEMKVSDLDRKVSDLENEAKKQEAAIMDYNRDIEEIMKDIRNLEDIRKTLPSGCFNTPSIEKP
UniProt P25391, residues 18-3075: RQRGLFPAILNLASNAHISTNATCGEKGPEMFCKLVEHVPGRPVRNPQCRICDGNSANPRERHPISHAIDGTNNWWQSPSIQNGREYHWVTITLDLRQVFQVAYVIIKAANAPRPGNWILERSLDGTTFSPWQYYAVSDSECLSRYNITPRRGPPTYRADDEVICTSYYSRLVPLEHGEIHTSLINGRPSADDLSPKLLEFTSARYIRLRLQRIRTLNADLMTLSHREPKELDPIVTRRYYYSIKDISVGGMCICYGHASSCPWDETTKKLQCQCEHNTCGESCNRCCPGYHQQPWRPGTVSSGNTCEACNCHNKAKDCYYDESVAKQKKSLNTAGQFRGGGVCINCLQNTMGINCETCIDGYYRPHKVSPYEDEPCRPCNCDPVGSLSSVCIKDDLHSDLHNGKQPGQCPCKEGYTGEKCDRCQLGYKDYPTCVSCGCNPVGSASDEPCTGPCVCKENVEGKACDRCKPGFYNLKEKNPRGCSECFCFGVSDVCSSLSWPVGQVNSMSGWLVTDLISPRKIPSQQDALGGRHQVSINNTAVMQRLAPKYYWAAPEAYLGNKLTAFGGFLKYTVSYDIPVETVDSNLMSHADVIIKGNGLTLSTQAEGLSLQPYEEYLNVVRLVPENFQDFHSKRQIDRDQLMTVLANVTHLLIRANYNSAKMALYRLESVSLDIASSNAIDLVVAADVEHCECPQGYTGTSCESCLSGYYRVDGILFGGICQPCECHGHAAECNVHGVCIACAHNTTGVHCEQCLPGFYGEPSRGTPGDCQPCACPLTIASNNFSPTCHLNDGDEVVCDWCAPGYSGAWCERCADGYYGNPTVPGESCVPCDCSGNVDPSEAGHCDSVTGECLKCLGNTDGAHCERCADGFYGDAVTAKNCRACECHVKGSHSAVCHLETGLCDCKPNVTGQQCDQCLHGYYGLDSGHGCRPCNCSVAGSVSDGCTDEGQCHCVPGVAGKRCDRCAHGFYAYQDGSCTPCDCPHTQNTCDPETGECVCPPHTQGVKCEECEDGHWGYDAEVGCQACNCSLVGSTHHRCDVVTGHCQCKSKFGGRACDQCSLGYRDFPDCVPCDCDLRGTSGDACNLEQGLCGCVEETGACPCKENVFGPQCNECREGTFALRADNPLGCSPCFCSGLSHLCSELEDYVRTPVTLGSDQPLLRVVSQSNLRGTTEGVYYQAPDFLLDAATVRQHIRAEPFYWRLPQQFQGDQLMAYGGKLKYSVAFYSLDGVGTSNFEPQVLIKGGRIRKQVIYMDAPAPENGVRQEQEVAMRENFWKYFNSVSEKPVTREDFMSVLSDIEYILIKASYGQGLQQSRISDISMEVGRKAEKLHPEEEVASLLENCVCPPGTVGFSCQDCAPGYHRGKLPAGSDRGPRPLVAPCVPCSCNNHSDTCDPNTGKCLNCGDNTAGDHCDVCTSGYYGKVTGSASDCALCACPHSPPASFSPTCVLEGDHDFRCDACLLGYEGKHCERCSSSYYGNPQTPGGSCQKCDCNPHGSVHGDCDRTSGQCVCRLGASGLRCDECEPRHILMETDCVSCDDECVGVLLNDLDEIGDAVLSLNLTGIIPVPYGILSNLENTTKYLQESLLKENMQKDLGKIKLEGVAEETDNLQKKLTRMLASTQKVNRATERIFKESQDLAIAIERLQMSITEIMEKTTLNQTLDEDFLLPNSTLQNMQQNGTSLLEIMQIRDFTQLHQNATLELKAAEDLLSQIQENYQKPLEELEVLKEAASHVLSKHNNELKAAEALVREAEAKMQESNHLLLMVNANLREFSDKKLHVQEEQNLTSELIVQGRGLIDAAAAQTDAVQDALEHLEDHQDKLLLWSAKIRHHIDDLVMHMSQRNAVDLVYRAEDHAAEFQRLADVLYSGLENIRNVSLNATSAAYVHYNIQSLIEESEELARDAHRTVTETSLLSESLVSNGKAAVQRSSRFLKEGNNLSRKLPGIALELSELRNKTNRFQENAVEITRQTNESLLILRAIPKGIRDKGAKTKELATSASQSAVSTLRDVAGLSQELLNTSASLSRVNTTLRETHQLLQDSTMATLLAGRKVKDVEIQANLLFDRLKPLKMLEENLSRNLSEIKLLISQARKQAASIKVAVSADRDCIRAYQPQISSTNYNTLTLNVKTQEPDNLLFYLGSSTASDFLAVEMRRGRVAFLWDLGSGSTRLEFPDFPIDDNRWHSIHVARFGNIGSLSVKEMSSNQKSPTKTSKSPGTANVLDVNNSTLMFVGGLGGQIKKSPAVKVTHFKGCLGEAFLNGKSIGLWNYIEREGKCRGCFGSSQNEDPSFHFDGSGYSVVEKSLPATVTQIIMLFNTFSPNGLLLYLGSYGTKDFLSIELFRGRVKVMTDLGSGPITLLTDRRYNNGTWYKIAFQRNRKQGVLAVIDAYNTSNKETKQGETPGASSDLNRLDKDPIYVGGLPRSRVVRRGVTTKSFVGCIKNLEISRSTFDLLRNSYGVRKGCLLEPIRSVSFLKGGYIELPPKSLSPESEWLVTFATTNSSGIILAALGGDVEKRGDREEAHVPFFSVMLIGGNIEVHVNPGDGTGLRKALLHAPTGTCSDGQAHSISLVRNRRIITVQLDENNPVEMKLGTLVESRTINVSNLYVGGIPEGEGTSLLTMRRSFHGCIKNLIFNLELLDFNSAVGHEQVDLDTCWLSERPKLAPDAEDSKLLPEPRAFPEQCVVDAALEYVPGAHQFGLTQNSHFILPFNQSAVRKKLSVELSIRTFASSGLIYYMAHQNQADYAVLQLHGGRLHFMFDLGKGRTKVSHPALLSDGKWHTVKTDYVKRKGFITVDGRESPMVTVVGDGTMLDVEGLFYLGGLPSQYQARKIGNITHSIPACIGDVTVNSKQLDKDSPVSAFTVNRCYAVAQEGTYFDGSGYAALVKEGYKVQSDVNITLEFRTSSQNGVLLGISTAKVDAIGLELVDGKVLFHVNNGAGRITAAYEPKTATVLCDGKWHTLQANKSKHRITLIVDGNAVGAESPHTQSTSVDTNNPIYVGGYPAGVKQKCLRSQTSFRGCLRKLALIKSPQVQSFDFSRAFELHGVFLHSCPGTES
UniProt P07942: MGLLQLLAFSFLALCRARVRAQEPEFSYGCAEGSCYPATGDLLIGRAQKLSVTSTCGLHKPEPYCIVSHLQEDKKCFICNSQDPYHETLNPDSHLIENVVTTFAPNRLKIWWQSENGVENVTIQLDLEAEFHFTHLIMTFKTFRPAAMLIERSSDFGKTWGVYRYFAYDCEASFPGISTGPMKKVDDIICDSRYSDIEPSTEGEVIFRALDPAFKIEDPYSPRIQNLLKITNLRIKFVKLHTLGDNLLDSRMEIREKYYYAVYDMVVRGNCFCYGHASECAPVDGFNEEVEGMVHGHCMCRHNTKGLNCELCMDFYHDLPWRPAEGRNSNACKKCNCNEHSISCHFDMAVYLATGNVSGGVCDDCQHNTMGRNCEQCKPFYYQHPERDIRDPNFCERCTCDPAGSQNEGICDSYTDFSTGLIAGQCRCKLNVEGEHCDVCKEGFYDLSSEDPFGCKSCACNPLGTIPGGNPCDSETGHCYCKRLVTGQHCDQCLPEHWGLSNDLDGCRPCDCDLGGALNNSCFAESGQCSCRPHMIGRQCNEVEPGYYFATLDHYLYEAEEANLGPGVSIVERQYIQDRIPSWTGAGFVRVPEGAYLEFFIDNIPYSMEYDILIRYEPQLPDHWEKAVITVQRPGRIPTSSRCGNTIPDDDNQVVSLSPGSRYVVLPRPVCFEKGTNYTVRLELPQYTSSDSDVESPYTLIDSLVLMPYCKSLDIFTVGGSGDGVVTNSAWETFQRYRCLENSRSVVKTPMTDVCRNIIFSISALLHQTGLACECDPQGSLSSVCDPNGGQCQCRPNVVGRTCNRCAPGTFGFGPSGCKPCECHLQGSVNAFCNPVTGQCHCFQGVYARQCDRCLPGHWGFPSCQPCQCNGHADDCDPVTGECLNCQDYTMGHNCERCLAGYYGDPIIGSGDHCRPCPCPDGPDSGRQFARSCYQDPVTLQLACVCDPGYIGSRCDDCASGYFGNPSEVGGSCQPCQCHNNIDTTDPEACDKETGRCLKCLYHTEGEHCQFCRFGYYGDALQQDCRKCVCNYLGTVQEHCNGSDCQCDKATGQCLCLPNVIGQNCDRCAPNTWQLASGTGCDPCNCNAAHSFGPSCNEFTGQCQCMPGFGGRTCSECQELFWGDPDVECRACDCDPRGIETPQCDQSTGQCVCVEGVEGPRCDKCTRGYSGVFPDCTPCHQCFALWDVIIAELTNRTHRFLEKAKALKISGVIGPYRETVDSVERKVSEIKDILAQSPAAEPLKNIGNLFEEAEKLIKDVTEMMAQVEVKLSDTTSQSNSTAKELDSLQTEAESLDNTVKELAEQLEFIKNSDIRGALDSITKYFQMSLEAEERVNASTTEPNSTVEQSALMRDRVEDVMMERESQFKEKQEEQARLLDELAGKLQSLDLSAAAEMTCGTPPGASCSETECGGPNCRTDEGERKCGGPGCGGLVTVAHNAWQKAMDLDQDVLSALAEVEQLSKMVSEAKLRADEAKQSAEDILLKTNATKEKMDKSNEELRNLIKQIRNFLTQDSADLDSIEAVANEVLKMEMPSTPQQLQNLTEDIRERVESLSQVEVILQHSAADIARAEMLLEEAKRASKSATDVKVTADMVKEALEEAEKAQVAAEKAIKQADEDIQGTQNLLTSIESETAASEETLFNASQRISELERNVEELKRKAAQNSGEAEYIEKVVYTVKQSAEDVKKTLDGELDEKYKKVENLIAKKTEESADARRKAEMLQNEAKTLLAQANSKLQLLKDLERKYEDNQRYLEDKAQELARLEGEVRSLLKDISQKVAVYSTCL

Legend:
[1] = target: FLAG-tagged human laminin γ1 chain (human) (UniProt P11047); test: non-reducing SDS-PAGE with immunoblot; conditioned media of human 293 cells transiently expressing the laminin chains, recovered 3 d after transfection; 4% SDS-PAGE under nonreducing conditions, blot with anti-laminin-γ1 antibody
[2] = target: FLAG-tagged human laminin γ1 chain (human) (UniProt P11047); test: co-IP; conditioned media of FreeStyle 293 cells expressing the three chains passed over ANTI-FLAG M2 Affinity Gel (FLAG on γ1), eluted with FLAG peptide; reducing 4% SDS-PAGE and Western blot with mAbs against α1, α5, β1 and γ1
[3] = target: recombinant human laminin-111 (human) (UniProt P25391+P07942+P11047); test: ELISA; solid-phase binding assay: 96-well plates coated with laminins at 5 nM overnight at 4°C, blocked with 3% BSA; 30 nM integrins for 3 h at room temperature with 1 mM Mn2+; bound integrins detected by biotinylated anti-Velcro pAb and HRP-streptavidin (absorbance at 490 nm); both purified

| Substance | binding [1] | binding [2] | binding [3] |
| --- | --- | --- | --- |
| human laminin α1 chain (from UniProt P25391 18-3075) | binds | binds | – |
| recombinant integrin αvβ3 (from UniProt P06756 31-992; P05106 27-718) (receptor) | – | – | binds weakly |
| recombinant integrin αvβ5 (from UniProt P06756 31-992; P18084 24-719) (receptor) | – | – | binds weakly |
